# Test results: article PMC5715081, “Purification and functional comparison of nine human Aquaporins produced in Saccharomyces cerevisiae for the purpose of biophysical characterization” (Scientific Reports, 2017)
# Results are given in words; binding and its absence hold for the method and conditions named. Some results given as binding are weak or reduced against the parent protein; the word gives no strength. Sequences can lack the tags named with a protein.
# Assays:
# [1] = biological target: T1, human AQP3-TEV-GFP-His10 fusion (human), Q92482; test: SDS-PAGE (SDS-resistant oligomers); peak fractions of Ni-affinity purified, detergent solubilised AQP-TEV-GFP-His10 fusions separated by SDS-PAGE; in-gel fluorescence and Coomassie staining; both purified; settings: remark: other sources report otherwise
# T1 chain: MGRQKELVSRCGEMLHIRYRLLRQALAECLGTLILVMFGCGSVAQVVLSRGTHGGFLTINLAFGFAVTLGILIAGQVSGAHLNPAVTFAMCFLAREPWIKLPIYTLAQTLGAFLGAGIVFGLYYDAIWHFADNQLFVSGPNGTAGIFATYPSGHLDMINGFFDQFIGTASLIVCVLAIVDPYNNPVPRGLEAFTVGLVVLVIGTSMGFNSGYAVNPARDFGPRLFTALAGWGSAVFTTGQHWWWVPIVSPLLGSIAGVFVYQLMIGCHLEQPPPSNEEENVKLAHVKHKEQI
# human AQP10-His8 (human) = human AQP10-His8 (human) (UniProt Q96PS8); test: SDS-PAGE (SDS-resistant oligomers); crude membranes of S. cerevisiae producing AQP10-His8 in a 15-L bioreactor at 15 °C, separated by SDS-PAGE; Coomassie staining or western blotting
binder,measurement,setting,value
"human AQP3-TEV-GFP-His10 fusion, Q92482 1-292 (protein) MGRQKELVSRCGEMLHIRYRLLRQALAECLGTLILVMFGCGSVAQVVLSRGTHGGFLTINLAFGFAVTLGILIAGQVSGAHLNPAVTFAMCFLAREPWIKLPIYTLAQTLGAFLGAGIVFGLYYDAIWHFADNQLFVSGPNGTAGIFATYPSGHLDMINGFFDQFIGTASLIVCVLAIVDPYNNPVPRGLEAFTVGLVVLVIGTSMGFNSGYAVNPARDFGPRLFTALAGWGSAVFTTGQHWWWVPIVSPLLGSIAGVFVYQLMIGCHLEQPPPSNEEENVKLAHVKHKEQI",binding,[1],binds
"human AQP10-His8 (protein, UniProt Q96PS8 1-301) MVFTQAPAEIMGHLRIRSLLARQCLAEFLGVFVLMLLTQGAVAQAVTSGETKGNFFTMFLAGSLAVTIAIYVGGNVSGAHLNPAFSLAMCIVGRLPWVKLPIYILVQLLSAFCASGATYVLYHDALQNYTGGNLTVTGPKETASIFATYPAPYLSLNNGFLDQVLGTGMLIVGLLAILDRRNKGVPAGLEPVVVGMLILALGLSMGANCGIPLNPARDLGPRLFTYVAGWGPEVFSAGNGWWWVPVVAPLVGATVGTATYQLLVALHHPEGPEPAQDLVSAQHKASELETPASAQMLECKL",binding,human AQP10-His8 (human),binds
